# Results taken from the supplement of paper PMC12819154, “High-throughput peptide-centric local stability assay extends protein–ligand identification to membrane proteins, tissues and bacteria” (Nature Structural & Molecular Biology, 2025).
# Amino acid sequences for entries named in this document (tags omitted). A change or cut given only in a name is not applied to a line headed by its entry.
# UniProt P54116: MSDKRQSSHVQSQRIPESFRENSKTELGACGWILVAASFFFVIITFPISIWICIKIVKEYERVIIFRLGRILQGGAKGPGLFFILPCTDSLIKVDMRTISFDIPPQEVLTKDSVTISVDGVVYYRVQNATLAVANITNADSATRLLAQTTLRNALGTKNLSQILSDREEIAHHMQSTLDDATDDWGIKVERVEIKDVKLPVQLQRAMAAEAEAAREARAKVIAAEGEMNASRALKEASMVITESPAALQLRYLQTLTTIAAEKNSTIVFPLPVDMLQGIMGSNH
# UniProt P39447, whole entry: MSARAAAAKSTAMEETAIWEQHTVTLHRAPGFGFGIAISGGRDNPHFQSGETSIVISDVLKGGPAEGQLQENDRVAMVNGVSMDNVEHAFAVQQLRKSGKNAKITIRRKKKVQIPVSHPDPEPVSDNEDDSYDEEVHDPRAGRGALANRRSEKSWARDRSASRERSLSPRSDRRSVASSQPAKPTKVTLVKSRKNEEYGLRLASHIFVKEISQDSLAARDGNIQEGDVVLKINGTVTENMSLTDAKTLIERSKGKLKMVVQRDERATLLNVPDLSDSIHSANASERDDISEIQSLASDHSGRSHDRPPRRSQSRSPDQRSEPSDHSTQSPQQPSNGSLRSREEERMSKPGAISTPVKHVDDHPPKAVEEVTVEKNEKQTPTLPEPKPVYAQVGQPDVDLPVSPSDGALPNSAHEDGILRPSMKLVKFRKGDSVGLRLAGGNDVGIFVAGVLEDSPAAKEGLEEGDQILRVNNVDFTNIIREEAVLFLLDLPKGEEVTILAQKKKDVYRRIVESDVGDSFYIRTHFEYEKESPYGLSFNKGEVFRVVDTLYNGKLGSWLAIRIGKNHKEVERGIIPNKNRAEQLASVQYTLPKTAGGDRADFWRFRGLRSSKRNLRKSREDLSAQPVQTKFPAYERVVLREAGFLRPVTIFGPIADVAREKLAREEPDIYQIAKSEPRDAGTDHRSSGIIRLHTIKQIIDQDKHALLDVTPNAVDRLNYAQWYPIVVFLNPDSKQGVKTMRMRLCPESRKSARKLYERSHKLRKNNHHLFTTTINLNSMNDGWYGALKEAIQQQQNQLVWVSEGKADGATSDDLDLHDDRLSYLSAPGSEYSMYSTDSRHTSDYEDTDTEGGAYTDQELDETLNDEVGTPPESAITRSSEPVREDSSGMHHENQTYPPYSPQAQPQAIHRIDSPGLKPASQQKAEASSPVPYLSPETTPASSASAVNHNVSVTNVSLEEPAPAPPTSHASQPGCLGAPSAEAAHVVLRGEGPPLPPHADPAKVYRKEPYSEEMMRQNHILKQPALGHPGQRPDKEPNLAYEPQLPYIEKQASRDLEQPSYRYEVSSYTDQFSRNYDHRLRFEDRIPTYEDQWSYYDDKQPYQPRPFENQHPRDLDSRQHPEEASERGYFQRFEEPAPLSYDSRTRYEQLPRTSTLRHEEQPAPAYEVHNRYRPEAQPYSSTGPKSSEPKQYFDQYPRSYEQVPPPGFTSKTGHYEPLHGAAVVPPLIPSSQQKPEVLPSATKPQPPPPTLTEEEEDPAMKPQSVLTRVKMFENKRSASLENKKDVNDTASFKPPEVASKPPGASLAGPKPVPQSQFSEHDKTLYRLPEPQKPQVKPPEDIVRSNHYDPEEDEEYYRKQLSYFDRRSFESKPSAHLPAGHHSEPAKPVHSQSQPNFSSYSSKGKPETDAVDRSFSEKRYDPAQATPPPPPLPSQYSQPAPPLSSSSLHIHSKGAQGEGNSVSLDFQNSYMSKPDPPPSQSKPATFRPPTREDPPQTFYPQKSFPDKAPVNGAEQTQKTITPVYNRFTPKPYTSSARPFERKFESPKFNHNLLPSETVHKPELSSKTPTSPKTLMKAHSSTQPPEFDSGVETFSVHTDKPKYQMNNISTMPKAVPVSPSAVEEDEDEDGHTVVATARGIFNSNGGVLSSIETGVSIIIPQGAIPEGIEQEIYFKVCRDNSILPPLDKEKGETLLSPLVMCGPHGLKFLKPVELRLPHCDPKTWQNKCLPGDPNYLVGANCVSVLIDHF
# UniProt P56371: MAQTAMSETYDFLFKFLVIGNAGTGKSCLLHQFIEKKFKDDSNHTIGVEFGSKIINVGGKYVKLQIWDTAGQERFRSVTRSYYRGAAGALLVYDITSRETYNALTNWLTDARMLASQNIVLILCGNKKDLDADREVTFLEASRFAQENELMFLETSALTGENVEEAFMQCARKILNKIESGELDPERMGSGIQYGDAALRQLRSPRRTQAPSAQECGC
# UniProt P37913: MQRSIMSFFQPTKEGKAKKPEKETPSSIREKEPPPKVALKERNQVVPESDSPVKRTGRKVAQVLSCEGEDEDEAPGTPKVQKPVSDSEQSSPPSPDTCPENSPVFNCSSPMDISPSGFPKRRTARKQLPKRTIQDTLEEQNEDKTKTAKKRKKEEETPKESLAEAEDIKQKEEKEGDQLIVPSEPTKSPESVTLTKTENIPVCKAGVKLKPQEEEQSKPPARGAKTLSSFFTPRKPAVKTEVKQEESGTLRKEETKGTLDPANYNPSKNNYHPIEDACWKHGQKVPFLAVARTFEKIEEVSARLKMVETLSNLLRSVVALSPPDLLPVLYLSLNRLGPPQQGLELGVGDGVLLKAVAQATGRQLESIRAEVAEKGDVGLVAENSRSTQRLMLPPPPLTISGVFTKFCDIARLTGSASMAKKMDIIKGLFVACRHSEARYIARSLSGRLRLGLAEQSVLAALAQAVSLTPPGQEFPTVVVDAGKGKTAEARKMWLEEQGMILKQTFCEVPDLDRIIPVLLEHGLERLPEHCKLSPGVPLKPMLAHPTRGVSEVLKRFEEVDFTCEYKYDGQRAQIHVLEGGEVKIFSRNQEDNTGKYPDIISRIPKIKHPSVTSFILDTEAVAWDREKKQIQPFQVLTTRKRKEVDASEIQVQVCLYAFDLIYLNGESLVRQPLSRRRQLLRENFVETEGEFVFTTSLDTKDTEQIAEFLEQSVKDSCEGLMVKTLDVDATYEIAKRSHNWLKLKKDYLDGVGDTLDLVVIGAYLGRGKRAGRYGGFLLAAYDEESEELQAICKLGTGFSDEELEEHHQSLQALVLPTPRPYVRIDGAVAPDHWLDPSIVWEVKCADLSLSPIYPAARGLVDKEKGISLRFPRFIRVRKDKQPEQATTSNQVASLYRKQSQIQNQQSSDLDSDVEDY
# UniProt P28574, whole entry: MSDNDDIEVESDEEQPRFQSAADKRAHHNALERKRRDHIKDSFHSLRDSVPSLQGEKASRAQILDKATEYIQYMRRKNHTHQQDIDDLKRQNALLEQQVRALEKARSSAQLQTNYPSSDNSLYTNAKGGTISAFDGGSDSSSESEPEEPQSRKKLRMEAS
# UniProt P47968: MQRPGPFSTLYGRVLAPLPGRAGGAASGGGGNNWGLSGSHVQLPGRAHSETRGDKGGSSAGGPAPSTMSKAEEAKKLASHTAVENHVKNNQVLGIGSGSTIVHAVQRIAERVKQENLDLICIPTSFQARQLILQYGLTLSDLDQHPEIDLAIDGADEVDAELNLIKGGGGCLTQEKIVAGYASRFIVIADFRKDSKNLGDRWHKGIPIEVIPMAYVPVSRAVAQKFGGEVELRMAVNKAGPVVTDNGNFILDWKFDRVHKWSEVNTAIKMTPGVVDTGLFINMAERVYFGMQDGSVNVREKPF
# UniProt P49070: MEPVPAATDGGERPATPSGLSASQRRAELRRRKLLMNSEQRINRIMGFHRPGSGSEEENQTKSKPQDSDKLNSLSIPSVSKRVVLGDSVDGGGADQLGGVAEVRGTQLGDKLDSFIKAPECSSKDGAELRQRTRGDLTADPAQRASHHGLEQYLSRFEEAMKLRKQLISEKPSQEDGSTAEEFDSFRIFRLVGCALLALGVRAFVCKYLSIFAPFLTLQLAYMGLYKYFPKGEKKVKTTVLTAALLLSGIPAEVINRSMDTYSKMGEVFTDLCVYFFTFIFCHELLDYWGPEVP
# UniProt P48437: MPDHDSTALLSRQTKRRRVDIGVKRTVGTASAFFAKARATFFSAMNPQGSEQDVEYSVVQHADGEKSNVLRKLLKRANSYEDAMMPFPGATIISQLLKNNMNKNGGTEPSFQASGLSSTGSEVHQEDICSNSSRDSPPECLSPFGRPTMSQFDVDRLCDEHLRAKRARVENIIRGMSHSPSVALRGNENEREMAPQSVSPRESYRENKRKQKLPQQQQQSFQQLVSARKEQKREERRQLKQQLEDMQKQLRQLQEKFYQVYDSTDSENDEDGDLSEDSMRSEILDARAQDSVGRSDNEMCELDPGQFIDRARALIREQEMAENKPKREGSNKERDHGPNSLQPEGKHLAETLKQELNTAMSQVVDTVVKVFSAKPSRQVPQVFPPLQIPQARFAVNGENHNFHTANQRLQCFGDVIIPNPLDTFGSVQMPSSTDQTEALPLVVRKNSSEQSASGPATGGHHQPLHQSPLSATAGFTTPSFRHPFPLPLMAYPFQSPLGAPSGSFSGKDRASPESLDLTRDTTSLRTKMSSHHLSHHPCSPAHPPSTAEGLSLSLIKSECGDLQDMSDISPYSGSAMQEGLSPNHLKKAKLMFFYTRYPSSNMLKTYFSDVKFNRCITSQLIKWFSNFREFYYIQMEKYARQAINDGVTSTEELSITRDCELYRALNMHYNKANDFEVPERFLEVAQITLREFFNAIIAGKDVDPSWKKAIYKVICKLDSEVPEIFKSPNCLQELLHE
# UniProt P52840: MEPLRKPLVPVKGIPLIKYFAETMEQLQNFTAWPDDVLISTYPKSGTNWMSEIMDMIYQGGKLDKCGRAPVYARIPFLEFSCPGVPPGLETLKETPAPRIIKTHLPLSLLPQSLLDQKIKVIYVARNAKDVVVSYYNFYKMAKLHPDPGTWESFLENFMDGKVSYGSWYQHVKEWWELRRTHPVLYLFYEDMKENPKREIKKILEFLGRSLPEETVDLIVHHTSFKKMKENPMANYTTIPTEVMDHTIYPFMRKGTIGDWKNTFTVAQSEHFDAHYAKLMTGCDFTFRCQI
# UniProt P32921: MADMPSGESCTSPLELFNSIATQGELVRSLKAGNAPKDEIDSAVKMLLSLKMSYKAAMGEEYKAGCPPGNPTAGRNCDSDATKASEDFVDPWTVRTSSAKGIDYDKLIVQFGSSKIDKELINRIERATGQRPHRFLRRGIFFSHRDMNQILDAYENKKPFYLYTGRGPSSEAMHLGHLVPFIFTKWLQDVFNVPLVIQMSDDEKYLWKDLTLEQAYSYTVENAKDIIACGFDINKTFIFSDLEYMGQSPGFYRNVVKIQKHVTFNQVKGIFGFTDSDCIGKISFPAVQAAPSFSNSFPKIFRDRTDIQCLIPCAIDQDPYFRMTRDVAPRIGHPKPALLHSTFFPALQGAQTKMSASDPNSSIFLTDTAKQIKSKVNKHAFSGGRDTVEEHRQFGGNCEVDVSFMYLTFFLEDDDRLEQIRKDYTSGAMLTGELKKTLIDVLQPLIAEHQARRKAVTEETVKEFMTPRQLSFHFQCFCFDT
# UniProt P28843: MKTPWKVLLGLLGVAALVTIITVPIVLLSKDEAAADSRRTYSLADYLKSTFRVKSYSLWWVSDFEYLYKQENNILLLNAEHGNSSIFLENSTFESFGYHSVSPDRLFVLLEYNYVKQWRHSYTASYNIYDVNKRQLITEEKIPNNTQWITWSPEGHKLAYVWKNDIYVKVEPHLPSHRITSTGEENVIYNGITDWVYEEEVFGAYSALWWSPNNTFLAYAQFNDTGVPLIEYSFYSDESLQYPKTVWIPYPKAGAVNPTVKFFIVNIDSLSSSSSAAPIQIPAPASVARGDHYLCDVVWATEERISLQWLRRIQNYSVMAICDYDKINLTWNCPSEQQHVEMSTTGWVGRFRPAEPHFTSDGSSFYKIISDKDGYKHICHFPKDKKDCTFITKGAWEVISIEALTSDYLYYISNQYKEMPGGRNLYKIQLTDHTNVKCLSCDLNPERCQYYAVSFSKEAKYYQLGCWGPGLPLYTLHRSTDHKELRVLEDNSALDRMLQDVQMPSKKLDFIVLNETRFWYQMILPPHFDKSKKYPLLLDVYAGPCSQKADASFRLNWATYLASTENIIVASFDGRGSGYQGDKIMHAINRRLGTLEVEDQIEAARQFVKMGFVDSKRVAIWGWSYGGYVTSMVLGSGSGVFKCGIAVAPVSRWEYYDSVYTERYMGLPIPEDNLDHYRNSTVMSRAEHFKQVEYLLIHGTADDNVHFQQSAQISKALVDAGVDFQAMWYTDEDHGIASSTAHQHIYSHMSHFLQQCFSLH
# UniProt P28653: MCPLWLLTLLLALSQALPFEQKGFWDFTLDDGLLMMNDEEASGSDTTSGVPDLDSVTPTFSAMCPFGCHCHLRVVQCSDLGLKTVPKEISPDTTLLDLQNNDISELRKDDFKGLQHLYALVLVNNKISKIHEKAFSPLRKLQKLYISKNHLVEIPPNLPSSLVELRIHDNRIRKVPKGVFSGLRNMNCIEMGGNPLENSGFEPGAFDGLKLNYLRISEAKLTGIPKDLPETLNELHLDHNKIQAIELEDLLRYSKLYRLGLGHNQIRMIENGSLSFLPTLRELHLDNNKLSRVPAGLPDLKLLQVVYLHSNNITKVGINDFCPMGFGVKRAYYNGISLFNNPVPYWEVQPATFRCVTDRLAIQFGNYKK
# This is one part of the list. Most entries show no effect beyond the scatter of the controls.
# Compound: CN[C@@H]1C[C@H]2O[C@@](C)([C@@H]1OC)n1c3ccccc3c3c4c(c5c6ccccc6n2c5c31)C(=O)NC4 [staurosporine]
# Assay: log2 fold change of pooled soluble protein (PISA), ligand vs vehicle (log2 ratio); higher = more thermally stabilized
# Conditions: ligand concentration: 20 uM; assay format: PISA pool 52.9/55.5/58.6 C
row,Target,log2 fold change of pooled soluble protein
1,UniProt P54116,-0.188
2,UniProt P47791,-0.383
3,UniProt P49935,0.0707
4,UniProt P39447,0.0203
5,UniProt P56371,-0.15
6,UniProt P53986,0.11
7,UniProt P46656,0.0201
8,UniProt P56542,-0.172
9,UniProt P55264,0.0103
10,UniProt P39039,-0.116
11,UniProt P33587,-0.0163
12,UniProt P48193,-0.0196
13,UniProt P52479,0.0509
14,UniProt P35123,0.363
15,UniProt P37913,-0.00444
16,UniProt P28574,-0.0321
17,UniProt P50543,0.121
18,UniProt P31001,-0.0218
19,UniProt P55065,0.0757

row,Target,log2 fold change of pooled soluble protein
1,UniProt P36423,0.249
2,UniProt P47968,-0.0355
3,UniProt P49070,-0.395
4,UniProt P48437,-0.111
5,UniProt P53810,0.168
6,UniProt P52840,-0.196
7,UniProt P32921,-0.019
8,UniProt P35922,-0.153
9,UniProt P54254,-0.245
10,UniProt P42867,0.0678
11,UniProt P52793,-0.288
12,UniProt P28843,0.00955
13,UniProt P29319,0.103
14,UniProt P28653,-0.306
15,UniProt P56213,0.0368
16,UniProt P45700,0.0564
17,UniProt P50247,0.00966
18,UniProt P31230,-0.0592
